We go through 1 molecule from patent US20030177527A1.

These are yes or no findings as the source states them, for the method shown. A result given as binding can be weak or reduced; the word gives no strength.

The target of this assay is NBS-LRR domain of the Mi-1.2 gene product (yeast two-hybrid bait) (tomato). The assay can be described thus: yeast two-hybrid, Mi-1.2 NBS-LRR domain as bait.

B1: Interactor S-25 (PP5, TPR-Phosphatase homolog) (enzyme, not shown: large carriers; small tags and cut ends)
chain: MPGMEAENSNASRAEELKQLANEAFKGHKYSQAIDLYTQAIELNGENAVYYANRAFAHTKLEEYGSAIQDGTRAIEIDPRYSKGYYRRGAAYLAMGKFKDALKDFQQVKKLCPNDPDATKKLKECEKAVMKLKFEEAISVPESQRRSVADSIDYRSVEVEPQYAGARIEGDVVTLDFVKKMLDDFKNQKNLHKRYAYQIVLQTREMLRALPSLVDIVVPEGKHFTVCGDVHGQFYDLLNIFELNGLPSEDNPYLFNGDFVDRGSFSLEVILTLFAFKCMCPSAIHLARGNHESKSMNKIYGFEGEVRSKLSEIFVELFAEVFCCLPLAHVINEKVFVVHRGLFSVDGVKLSDIRAIDRFCEPPEEGLMCELLWSDPQPQPGRGPSKRGVGLSFGGDVTKRFLQENNLDLVVRSHEVKDEGYEIEHDGKLITVFSAPNYCDQMGNKGAFIRFEAPDMKPNIVTFSAVPHPDVKPMAYANNFLRMFS
B1: the binding result is recorded as “binds”.
